In publication PMC10578308 (ACS Medicinal Chemistry Letters, 2023) one finds isolated yield and isolated mass data, which are given here for seven substances.

Data set [1] in a line: general procedure: Fmoc solid-phase peptide synthesis; (2-Cl)Trt chloride resin; HATU/DIEA; EDCI·HCl/HOAt/DIEA for macrocyclisation. The following applies: whole synthesis; for isolated yield: from resin.
Data set [2] is described as follows: general procedure: Fmoc solid-phase peptide synthesis; peptidyl resin S6 (2-Cl-Trt); HATU/DIEA; EDCI·HCl/HOAt/DIEA for macrocyclisation. The following applies: whole synthesis, scale 0.0500 mmol.

Strings that start with PEPTIDE1 are HELM notation: dots part the residues, brackets hold end groups and non-standard residues.

In data set [1] (scale 0.100 mmol), “PEPTIDE1{[Me2Val].[D-Hva].[MeAla].[MeLeu].[MeDab].[MeAla].[MeIle].A.[MeLeu].[Tyr(Me)].[D-MeAla]}$PEPTIDE1,PEPTIDE1,5:R3-11:R2$$$V2.0” had an isolated yield of 8% and an isolated mass of 10.4 mg.

In data set [1] (scale 0.100 mmol), “PEPTIDE1{[Me2Val].[D-Hva].[MeAla].[MeLeu].[MeDap(Me)].[MeAla].[MeIle].A.[MeLeu].[Tyr(Me)].[D-MeAla]}$PEPTIDE1,PEPTIDE1,5:R3-11:R2$$$V2.0” displayed an isolated yield of 2% and an isolated mass of 3.1 mg.

In data set [1] (scale 0.100 mmol), “PEPTIDE1{[Me2Val].[D-Hva].[MeAla].[MeLeu].[MeDap].[MeAla].[MeIle].A.[MeLeu].[Tyr(Me)].[D-MeAla]}$PEPTIDE1,PEPTIDE1,5:R3-11:R2$$$V2.0” had an isolated yield of 5% and an isolated mass of 7.0 mg.

With “PEPTIDE1{[Me2Val].[D-Hva].[MeAla].[MeLeu].[MeLys(Me)-3S,6R-Me2-4E-ene].[MeAla].[MeIle].A.[MeLeu].[Tyr(Me)]}$PEPTIDE1,PEPTIDE1,5:R3-10:R2$$$V2.0”, in data set [1] (scale 0.050 mmol), the isolated yield was 1% and the isolated mass turned out to be 1.2 mg.

“PEPTIDE1{[Me2Val].[D-Hva].[MeAla].[MeLeu].[MeLys(Me)-3S,6R-Me2].[MeAla].[MeIle].A.[MeLeu].[Tyr(Me)]}$PEPTIDE1,PEPTIDE1,5:R3-10:R2$$$V2.0” had an isolated yield in data set [1] (scale 0.0500 mmol) of 3%. The substance further displayed an isolated mass in data set [2] of 3.7 mg.

In data set [1] (scale 0.100 mmol), “PEPTIDE1{[Me2Val].[D-Hva].[MeSer(Me)].[MeLeu].[MeDab].[MeSer(Me)].[MeIle].A.[MeLeu].[Bph].[D-MeAla]}$PEPTIDE1,PEPTIDE1,5:R3-11:R2$$$V2.0” yielded an isolated yield of 7% and an isolated mass of 10.5 mg.

In the case of “PEPTIDE1{[Me2Val].[D-Hva].[MeSer(Me)].[MeLeu].[MeDab].[MeSer(Me)].[MeIle].A.[MeLeu].[Tyr(Me)].[D-MeAla]}$PEPTIDE1,PEPTIDE1,5:R3-11:R2$$$V2.0”, in data set [1] (scale 0.100 mmol), the isolated yield came to 11% and the isolated mass stood at 15.0 mg.
